The whole screen tested about 330,000 compounds, of which about 7,700 (2.3%) were called active. The shares of active, inactive and inconclusive entries below differ from those in the screen. Calls follow the shape of the dose curve; as a rule, active = well fitted inhibition curve with a large enough effect; inconclusive = small, poorly fitted or top-dose-only effect, or effect the other way; inactive = flat fitted curve, though single readings scatter. Potencies of inconclusive entries are doubtful fits and often do not repeat.
Experiment: qHTS screen for small molecules that inhibit ELG1-dependent DNA repair in human embryonic kidney (HEK293T) cells expressing luciferase-tagged ELG1; also: nearly all actives have a fitted effect of over 55% in size
Details: HEK293T ELG1-luciferase reporter, luminescence, 16 h, DNA damage induced by 5-fluorouridine; activity change, negative = inhibition: at 46.1 µM (top of the series)
How it was run: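 In this reporter screen, reduction of luminescence relative to DMSO vehicle indicated activity. Compounds and 5-fluorouridine were added together to 2,000 cells per well, incubated for 16 hr at 37 °C, then developed with ONE-Glo.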
% is scaled to controls: 0 for no effect and ±100 for the full control effect; potency is read from the fitted curve at half-maximal effect.

| SMILES | Potency | activity change, negative = inhibition |
| --- | --- | --- |
| COc1ccc(C(=O)NC(=S)NCC2CCCO2)cc1 (stereo unspecified) | inconclusive: 18.4 µM [activator, single point] | – |
| O=C1/C(=C\c2ccc([N+](=O)[O-])cc2)CCc2ccccc21 | inconclusive: 7.31 µM [activator, partial curve] | – |
| NC(=O)c1ccc[n+](CC(=O)c2ccc(NC(=O)c3ccccc3)cc2)c1 | – | inactive: 8.24% |
| CCCCC(=O)NC(=S)Nc1nnn(CCC)n1 | – | inactive: -2.71% |
| CCN(C(=O)c1ccc2c(Cl)c3c(nc2c1)CCC3)c1cccc(C)c1 | inconclusive: 6.51 µM [inhibitor, partial curve, poor fit] | – |
| C(=N\N1CCN(Cc2ccccc2)CC1)/c1ccccc1 | inconclusive: 23.1 µM [activator, single point] | – |
| COc1ccc(-c2cc(-c3cccs3)nc3sc(C#N)c(N)c23)cc1 | inconclusive: 25.9 µM [inhibitor, partial curve, poor fit] | – |
| Cc1cccc(C(=O)O/N=C/c2c(N3CCOCC3)n(C)c3ccccc23)c1 | inconclusive: 18.4 µM [inhibitor, single point] | – |
| COc1n[nH]c(C(=O)Nc2nc3ccccc3s2)c1[N+](=O)[O-] | inconclusive: 13 µM [activator, partial curve] | – |
| COc1ccc(-c2ccnc3nc(Sc4ncc(C(F)(F)F)cc4Cl)nn23)cc1 | – | inactive: -2.59% |
| COc1ccc(C(=O)c2c3ccc(OC)cc3[n+]([O-])n2Cc2ccc(C(N)=O)cc2)cc1 | inconclusive: 6.31 µM [activator, partial curve] | – |
| COc1ccc(-n2cccc2/C=C2\C(=N)N3N=C(C(C)C)SC3=NC2=O)cc1 | inconclusive: 18.3 µM [inhibitor, single point] | – |
| O=C(Cc1ccc(F)cc1)Nc1nnc(SCC(=O)N2CCCCC2)s1 | – | inactive: -2.54% |
| Cn1nc(C(F)(F)F)c2cc(C(=O)Nc3ccc(C(F)(F)F)cc3)sc21 | inconclusive: 20.6 µM [inhibitor, partial curve, poor fit] | – |
| O=C(NCCCN1CCCC1=O)Nc1ccccc1F | inconclusive: 23.1 µM [activator, single point] | – |
| C=CCn1cccc(C(=O)Nc2ccc(F)cc2)c1=O | inconclusive: 14.6 µM [activator, partial curve] | – |
| COc1ccccc1-c1nnc(NC(=O)c2ccc(S(=O)(=O)N(C)Cc3ccccc3)cc2)o1 | inconclusive: 18.4 µM [inhibitor, partial curve] | – |
| Clc1cccc(COn2c(-c3ccc(Cl)cc3Cl)nc3ncccc32)c1 | inconclusive: 23.1 µM [inhibitor, partial curve, poor fit] | – |
| CCOC(=O)c1cnn(-c2nc(OCC)cc(OCC)n2)c1C | inconclusive: 29.1 µM [inhibitor, single point] | – |
| CCOc1ccccc1C(=O)N1CCC(n2nnc3cc(C(F)(F)F)ccc32)CC1 | active: 20.6 µM | – |
| CC(Sc1nnnn1-c1ccc(Cl)cc1)C(=O)NCC(=O)Nc1ccc(F)c(F)c1F (stereo unspecified) | inconclusive: 18.4 µM [inhibitor, single point] | – |
| CCOC(=O)c1c(C)[nH]c(C(=O)COC(=O)c2ccco2)c1C | inconclusive: 20.6 µM [activator, single point] | – |
| Cn1cccc1C(=O)NCCc1ccccc1 | inconclusive: 2.59 µM [activator, full curve] | – |
| CC1(C(=O)OCC(=O)Nc2nc(-c3ccc(F)c(F)c3)cs2)CC1(Cl)Cl (stereo unspecified) | inconclusive: 29.1 µM [inhibitor, single point] | – |

| SMILES | Potency | activity change, negative = inhibition |
| --- | --- | --- |
| N#Cc1c(Cl)nc2c(c1C#N)CCCC2 | – | inactive: 0% |
| O=c1oc2ccccc2c(N2CCC(c3ccccc3)CC2)c1[N+](=O)[O-] | – | inactive: -19.8% |
| COc1ccc(C(=O)Nc2cccc3c2CCCC3)cc1OC | – | inactive: 6.8% |
| Cc1noc(C)c1COC(=O)c1ccccc1NC(=O)Cc1ccccc1 | inconclusive: 23.1 µM [inhibitor, partial curve, poor fit] | – |
| Cc1cccc(OCCC(=O)Nc2cc(S(=O)(=O)N3CCCCC3)ccc2N2CCOCC2)c1 | inconclusive: 20.6 µM [inhibitor, single point] | – |
| CCOc1ccc(NC(=O)CN(C)CC(=O)Nc2cc(Cl)ccc2C#N)cc1OCC | inconclusive: 23.1 µM [inhibitor, single point] | – |
| CCOC(=O)c1ccc(-n2c(O)c(/C=N/NC(=O)C3COc4ccccc4O3)c3ccccc3c2=O)cc1 (stereo unspecified) | – | inactive: -12.5% |
| CCCn1nc(NC(C)=O)c2cc3cccc(C)c3nc21 | inconclusive: 25.9 µM [inhibitor, partial curve, poor fit] | – |
| Cc1c(Cl)cccc1NC(=S)NCCC(C)C | – | inactive: 3.82% |
| CCN(CC)c1ccc(C(=O)n2cnc3ccccc32)cc1 | inconclusive: 8.2 µM [activator, partial curve, poor fit] | – |
| CSc1nc(O)c(/C=C2\C=Nc3ccccc32)[nH]1 | inconclusive: 14.6 µM [activator, partial curve] | – |
| CC(=O)Nc1nnc(-c2ccc3c(c2)CCCC3)o1 | inconclusive: 7.31 µM [activator, partial curve] | – |
| CCOc1ccc(C(=O)n2cc(C(=O)OC)c3ccccc32)cc1 | inconclusive: 1.26 µM [inhibitor, single point] | – |
| CCn1c2ccccc2c2nnc(SCC(=O)N3CC(C)OC(C)C3)nc21 (stereo unspecified) | inconclusive: 23.1 µM [inhibitor, single point] | – |
| COC(=O)c1ccc(COc2ccc3ccc(=O)oc3c2)o1 | inconclusive: 16.4 µM [activator, partial curve, poor fit] | – |
| CCCn1c(=O)c2c(nc3n2CCS3)n(C)c1=O | – | inactive: -2.68% |
| CC(C)CCOc1ccc(C2CC(=O)N(C)C2=O)cc1 (stereo unspecified) | inconclusive: 16.4 µM [activator, single point] | – |
| O=c1cc[nH]c2cc(C(F)(F)F)ccc12 | inconclusive: 2.06 µM [activator, full curve, poor fit] | – |
| Cc1nnc2n(c1=O)C(CS(=O)(=O)c1ccc3ccccc3c1)CS2 (stereo unspecified) | inconclusive: 14.6 µM [inhibitor, partial curve] | – |
| Clc1ccccc1-c1nc(-c2ccccc2)n[nH]1 | inconclusive: 10.3 µM [activator, partial curve] | – |
| O=C(O)c1ccc(COc2c(F)c(F)c(F)c(F)c2F)o1 | inconclusive: 20.6 µM [activator, single point] | – |
| COc1ccc(-c2nc(N)n(C(=O)c3ccccc3Cl)n2)cc1 | – | inactive: 1.2% |
| CC1(C)CC(=O)C(/C=N/n2c(C(F)(F)F)nc3ccccc3c2=O)=C(O)C1 | – | inactive: -12.8% |
| Nc1ccc(-c2nc3cc(N)ccc3o2)cc1 | inconclusive: 2.59 µM [activator, partial curve] | – |

Record cards, from the list above.
O=C1/C(=C\c2ccc([N+](=O)[O-])cc2)CCc2ccccc21 is listed as Potency: inconclusive: 7.31 µM [activator, partial curve]
COC(=O)c1ccc(COc2ccc3ccc(=O)oc3c2)o1 is listed as Potency: inconclusive: 16.4 µM [activator, partial curve, poor fit]
O=c1oc2ccccc2c(N2CCC(c3ccccc3)CC2)c1[N+](=O)[O-] is listed as activity change, negative = inhibition: inactive: -19.8%

Next part

| SMILES | Potency | activity change, negative = inhibition |
| --- | --- | --- |
| Cc1nc2cc(C(=O)OCC(=O)N(CC(C)C)C3CCS(=O)(=O)C3)ccc2n1-c1ccccc1 (stereo unspecified) | inconclusive: 18.4 µM [activator, partial curve, poor fit] | – |
| COc1ccccc1-c1nnc(SCC(=O)Nc2ccc(S(N)(=O)=O)cc2)n1N | – | inactive: -3.27% |
| O=C(Oc1c(Cl)cc(Cl)c2cccnc12)c1cccs1 | inconclusive: 32.6 µM [inhibitor, single point] | – |
| CS(=O)(=O)c1ccc2nc(NC(=O)c3cccc([N+](=O)[O-])c3)sc2c1 | inconclusive: 3.66 µM [activator, full curve] | – |
| Cn1nc(-c2ccccc2)c(CSc2ccccc2Cl)c1Cl | – | inactive: -22.8% |
| Cc1cccc(CNC(=O)CCCn2nc(C)c3c(C)n(-c4ccccc4)nc3c2=O)c1 | – | inactive: -0.547% |
| NC(=O)c1ccccc1N/C=C/C(=O)c1ccccc1 | inconclusive: 0.82 µM [activator, full curve, poor fit] | – |
| CCOc1ccc(NC(=O)CN(C)C(=O)c2ccccc2SCc2c(C)noc2C)cc1OCC | – | inactive: -28% |
| COC(=O)c1c(NS(=O)(=O)c2ccccc2)csc1C | inconclusive: 18.3 µM [inhibitor, single point] | – |
| O=C1CN(C(=O)COC(=O)c2ccccc2Br)c2ccccc2N1 | – | inactive: 13.2% |
| COCCNC(=O)C1CC(c2cccc([N+](=O)[O-])c2)=NO1 (stereo unspecified) | – | inactive: 18.8% |
| Cc1ccc(N(CC(O)Cn2c3ccccc3c3ccccc32)S(C)(=O)=O)c(C)c1 (stereo unspecified) | – | inactive: -8.44% |
| O=c1[nH]c2cc3c(cc2cc1CN(CCCO)Cc1nnnn1Cc1ccc(F)cc1)OCO3 | inconclusive: 14.6 µM [inhibitor, partial curve, poor fit] | – |
| CCN1C(=O)c2ccc(C(=O)Nc3ccc4c(c3)OCO4)cc2C1=O | inconclusive: 29.1 µM [activator, single point] | – |
| Cn1c(=O)c(C#N)c(-c2ccc(F)cc2)c2cc(C(=O)c3cc(Cl)cc(Cl)c3O)cnc21 | inconclusive: 29.1 µM [inhibitor, single point] | – |
| CCOc1ccccc1NC(=S)NCc1ccccc1 | – | inactive: -1.78% |
| Cc1ccc(C)c(OC(=O)CN2C(=O)c3ccccc3C2=O)c1 | – | inactive: 12.5% |
| O=C(C1CCC1)N1CCN(S(=O)(=O)c2ccc(F)cc2)CC1 | – | inactive: 25.5% |
| CN(CCOc1ccccc1)C(=O)C1CCC(=O)N(CCN2CCOCC2)C1 (stereo unspecified) | – | inactive: 0.31% |
| CCOc1ccc(S(=O)(=O)N2CCOCC2)cc1NC(=O)CSCc1c(C)noc1C | inconclusive: 29.1 µM [inhibitor, single point] | – |
| O=C(N/N=C/c1ccc(Br)s1)c1c[nH]c2ccccc12 | inconclusive: 14.6 µM [activator, partial curve] | – |
| NC(=S)N/N=C/c1ccc(-c2ccc(SC(F)F)cc2)o1 | inconclusive: 23.1 µM [inhibitor, single point] | – |
| Nc1ccc(S(=O)(=O)NCC(=O)OC2CCOC2=O)cc1[N+](=O)[O-] (stereo unspecified) | – | inactive: 2.77% |

— PubChem BioAssay AID504467 (National Center for Advancing Translational Sciences (NCATS), 2011)
